# Measured values as given in the supplement of paper PMC12823440, “Inhibitors supercharge kinase turnover through native proteolytic circuits” (Nature, 2025).
# Chains of the proteins cited; added tags and fusions are not shown. Lines headed by an entry give the natural chain unless they say otherwise; changes in a name come on top.
# UniProt P50613: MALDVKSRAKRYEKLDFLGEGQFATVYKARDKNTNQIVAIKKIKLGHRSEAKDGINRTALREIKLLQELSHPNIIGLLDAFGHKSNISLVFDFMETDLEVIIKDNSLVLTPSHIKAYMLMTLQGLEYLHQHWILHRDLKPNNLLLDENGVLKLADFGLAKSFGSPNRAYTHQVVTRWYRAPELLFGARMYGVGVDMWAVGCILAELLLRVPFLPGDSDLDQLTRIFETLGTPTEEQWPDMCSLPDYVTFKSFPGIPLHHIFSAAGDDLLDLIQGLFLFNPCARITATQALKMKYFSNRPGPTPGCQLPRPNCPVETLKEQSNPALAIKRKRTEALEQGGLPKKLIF
# UniProt P50750, whole entry: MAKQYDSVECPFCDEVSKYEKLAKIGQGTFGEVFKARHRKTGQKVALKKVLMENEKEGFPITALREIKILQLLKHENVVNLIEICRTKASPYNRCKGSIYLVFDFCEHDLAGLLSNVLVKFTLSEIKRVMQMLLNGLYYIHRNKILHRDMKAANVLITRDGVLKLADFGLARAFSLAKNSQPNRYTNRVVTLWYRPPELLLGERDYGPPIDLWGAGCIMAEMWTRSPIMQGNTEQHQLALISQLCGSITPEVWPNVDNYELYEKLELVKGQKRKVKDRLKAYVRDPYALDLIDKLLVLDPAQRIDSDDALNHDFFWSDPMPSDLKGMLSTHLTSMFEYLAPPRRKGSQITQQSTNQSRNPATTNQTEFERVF
# UniProt O96017, whole entry: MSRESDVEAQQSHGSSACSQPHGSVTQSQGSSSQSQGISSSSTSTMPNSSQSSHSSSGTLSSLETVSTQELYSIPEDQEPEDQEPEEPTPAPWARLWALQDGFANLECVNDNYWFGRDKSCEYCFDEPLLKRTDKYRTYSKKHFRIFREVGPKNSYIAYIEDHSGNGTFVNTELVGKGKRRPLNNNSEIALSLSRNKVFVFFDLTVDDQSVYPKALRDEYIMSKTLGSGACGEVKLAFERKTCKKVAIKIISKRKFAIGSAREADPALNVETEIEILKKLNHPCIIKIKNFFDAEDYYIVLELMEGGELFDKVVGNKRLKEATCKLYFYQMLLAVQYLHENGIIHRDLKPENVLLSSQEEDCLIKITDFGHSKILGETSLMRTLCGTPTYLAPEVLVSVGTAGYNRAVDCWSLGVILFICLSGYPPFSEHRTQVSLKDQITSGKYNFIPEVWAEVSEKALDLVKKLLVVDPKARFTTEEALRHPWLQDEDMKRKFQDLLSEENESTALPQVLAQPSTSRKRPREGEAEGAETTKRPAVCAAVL
# UniProt P07333, whole entry: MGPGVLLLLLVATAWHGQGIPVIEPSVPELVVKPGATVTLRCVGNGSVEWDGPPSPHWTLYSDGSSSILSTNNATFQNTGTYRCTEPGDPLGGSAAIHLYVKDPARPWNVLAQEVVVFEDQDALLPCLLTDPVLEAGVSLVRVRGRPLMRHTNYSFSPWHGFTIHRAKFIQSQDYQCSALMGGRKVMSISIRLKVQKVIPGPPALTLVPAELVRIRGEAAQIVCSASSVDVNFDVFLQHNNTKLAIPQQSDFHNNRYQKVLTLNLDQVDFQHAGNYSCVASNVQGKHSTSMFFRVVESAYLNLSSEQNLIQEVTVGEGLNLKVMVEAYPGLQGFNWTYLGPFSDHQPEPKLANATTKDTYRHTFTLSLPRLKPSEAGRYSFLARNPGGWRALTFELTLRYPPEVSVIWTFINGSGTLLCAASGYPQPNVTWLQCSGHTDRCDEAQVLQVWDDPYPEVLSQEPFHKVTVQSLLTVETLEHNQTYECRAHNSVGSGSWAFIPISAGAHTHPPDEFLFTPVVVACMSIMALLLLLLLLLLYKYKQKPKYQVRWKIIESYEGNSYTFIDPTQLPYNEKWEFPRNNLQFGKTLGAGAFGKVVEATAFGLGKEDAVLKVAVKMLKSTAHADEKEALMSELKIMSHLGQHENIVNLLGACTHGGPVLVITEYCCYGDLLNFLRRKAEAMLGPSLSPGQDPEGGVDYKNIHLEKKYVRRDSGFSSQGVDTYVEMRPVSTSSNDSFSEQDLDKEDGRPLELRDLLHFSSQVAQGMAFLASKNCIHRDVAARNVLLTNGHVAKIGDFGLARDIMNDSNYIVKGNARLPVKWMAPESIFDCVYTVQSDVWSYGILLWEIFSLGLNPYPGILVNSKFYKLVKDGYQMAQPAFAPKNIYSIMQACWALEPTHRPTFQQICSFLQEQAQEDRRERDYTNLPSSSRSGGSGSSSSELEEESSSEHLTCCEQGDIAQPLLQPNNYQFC
# UniProt P41240: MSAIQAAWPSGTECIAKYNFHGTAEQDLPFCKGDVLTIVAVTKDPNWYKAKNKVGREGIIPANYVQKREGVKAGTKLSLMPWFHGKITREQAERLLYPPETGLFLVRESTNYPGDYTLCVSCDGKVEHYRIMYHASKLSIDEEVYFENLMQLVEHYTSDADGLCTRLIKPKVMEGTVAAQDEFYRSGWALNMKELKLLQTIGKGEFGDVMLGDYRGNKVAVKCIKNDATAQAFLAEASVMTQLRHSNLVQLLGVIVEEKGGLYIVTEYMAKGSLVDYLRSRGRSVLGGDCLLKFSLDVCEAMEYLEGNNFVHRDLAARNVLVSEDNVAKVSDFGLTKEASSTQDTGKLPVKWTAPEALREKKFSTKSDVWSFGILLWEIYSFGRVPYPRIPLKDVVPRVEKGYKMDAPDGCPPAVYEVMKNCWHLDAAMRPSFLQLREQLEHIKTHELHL
# UniProt P48729: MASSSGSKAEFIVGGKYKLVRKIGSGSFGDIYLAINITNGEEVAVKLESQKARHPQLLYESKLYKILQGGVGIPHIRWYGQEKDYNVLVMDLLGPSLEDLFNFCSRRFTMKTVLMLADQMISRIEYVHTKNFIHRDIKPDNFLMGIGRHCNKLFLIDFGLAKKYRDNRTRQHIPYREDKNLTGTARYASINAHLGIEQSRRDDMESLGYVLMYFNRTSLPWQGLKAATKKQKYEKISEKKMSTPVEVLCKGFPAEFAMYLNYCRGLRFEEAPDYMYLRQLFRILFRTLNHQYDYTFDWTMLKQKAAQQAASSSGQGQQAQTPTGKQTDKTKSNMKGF
# UniProt P48730: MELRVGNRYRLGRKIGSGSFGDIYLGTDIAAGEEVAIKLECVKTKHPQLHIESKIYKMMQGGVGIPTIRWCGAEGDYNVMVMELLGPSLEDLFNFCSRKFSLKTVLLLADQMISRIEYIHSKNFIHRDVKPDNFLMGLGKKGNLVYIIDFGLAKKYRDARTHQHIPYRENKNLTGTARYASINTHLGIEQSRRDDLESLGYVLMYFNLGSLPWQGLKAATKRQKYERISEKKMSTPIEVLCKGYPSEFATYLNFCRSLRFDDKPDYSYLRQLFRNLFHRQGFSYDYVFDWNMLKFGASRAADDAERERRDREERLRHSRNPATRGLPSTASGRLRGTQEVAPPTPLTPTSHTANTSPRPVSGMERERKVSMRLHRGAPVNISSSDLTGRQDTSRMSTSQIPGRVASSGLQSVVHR
# UniProt Q08345: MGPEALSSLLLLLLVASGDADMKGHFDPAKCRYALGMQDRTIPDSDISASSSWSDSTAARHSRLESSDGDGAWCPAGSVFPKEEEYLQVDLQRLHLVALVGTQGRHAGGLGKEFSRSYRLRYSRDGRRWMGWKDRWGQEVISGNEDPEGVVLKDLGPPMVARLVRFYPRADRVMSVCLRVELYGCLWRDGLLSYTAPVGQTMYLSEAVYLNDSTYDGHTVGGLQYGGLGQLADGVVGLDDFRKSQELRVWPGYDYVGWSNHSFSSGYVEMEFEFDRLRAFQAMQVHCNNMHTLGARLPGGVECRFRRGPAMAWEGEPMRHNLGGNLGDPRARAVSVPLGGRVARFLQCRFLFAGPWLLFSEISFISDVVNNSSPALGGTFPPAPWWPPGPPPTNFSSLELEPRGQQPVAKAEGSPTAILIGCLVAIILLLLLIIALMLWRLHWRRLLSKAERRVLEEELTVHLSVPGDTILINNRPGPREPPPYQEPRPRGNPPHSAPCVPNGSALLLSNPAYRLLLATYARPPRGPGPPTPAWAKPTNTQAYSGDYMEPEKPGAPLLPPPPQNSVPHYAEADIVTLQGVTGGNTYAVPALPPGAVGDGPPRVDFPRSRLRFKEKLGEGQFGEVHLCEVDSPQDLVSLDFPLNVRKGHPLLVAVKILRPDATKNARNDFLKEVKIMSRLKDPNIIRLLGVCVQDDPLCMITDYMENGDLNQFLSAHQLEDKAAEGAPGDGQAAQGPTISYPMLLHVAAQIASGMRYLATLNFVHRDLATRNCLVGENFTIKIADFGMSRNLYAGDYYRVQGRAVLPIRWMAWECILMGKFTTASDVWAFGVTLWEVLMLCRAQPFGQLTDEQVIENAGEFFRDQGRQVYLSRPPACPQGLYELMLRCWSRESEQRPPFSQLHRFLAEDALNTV
# UniProt Q9Y463, whole entry, looked up: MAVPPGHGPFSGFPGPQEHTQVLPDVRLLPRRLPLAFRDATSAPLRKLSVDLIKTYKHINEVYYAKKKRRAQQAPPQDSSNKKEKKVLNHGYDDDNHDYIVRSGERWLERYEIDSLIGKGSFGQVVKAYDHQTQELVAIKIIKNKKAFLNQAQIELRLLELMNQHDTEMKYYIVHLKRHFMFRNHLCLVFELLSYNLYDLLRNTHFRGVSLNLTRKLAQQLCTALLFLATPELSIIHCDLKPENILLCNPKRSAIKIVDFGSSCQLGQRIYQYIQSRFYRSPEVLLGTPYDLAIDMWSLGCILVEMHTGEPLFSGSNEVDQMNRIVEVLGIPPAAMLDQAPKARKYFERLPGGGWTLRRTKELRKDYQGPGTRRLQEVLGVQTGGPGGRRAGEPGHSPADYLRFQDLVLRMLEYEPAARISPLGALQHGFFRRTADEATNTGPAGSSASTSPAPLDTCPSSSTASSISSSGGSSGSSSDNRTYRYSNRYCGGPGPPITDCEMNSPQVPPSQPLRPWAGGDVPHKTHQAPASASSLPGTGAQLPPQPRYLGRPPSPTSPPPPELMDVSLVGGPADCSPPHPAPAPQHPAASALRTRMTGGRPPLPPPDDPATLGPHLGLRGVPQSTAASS
# UniProt Q92630: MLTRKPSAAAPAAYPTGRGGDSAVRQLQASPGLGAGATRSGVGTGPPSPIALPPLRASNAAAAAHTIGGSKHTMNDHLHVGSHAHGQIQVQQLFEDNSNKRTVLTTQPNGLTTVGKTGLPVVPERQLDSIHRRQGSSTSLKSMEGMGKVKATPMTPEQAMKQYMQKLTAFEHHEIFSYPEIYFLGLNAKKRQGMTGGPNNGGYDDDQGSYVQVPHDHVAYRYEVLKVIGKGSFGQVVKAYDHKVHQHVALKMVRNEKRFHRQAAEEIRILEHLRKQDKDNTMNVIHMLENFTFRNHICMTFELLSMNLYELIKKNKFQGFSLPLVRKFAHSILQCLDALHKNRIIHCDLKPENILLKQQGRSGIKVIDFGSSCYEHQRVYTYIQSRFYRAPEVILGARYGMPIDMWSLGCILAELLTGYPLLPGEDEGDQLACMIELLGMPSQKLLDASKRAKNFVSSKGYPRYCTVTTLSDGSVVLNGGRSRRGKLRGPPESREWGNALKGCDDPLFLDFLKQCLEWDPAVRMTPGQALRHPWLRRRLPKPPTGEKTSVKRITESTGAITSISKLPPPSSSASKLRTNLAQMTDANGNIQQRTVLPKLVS
# Where a name gives a salt, the structure may show the parent alone. Some of the results follow. Hit calls seldom repeat between salt and free forms of one compound.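 Kinases, fused to nanoluciferase, were expressed in K562 cells; luminescence was measured every 4 h from 2 to 18 h as percent of control (DMSO = 100%, positive control = 0%). A time point is decreased if signal falls significantly (2 sigma). Hits were called by the authors by a rule that is not shown; the count of time points alone does not decide it.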
# Tests used:
# Assay in all cases: kinase-Nluc reporter destabilization hit call (1 = scored as downregulated) (binary); higher = compound decreases kinase abundance
# Conditions in all cases: K562; 2-18 h
# CDK7 = CDK7 (UniProt P50613)
# CDK9 = CDK9 (UniProt P50750)
# CHEK2 = CHEK2 (UniProt O96017)
# CSF1R = CSF1R (UniProt P07333)
# CSK = CSK (UniProt P41240)
# CSNK1A1 = CSNK1A1 (UniProt P48729)
# CSNK1D = CSNK1D (UniProt P48730)
# DDR1 = DDR1 (UniProt Q08345)
# DYRK1B = DYRK1B (UniProt Q9Y463)
# DYRK2 = DYRK2 (UniProt Q92630)
Structure (SMILES),kinase-Nluc reporter destabilization hit call (CDK7),kinase-Nluc reporter destabilization hit call (CDK9),kinase-Nluc reporter destabilization hit call (CHEK2),kinase-Nluc reporter destabilization hit call (CSF1R),kinase-Nluc reporter destabilization hit call (CSK),kinase-Nluc reporter destabilization hit call (CSNK1A1),kinase-Nluc reporter destabilization hit call (CSNK1D),kinase-Nluc reporter destabilization hit call (DDR1),kinase-Nluc reporter destabilization hit call (DYRK1B),kinase-Nluc reporter destabilization hit call (DYRK2)
C[C@@H]1CN(Cc2cn[nH]c2-c2ccc(C#N)cc2)CCN1c1ccc(C(F)(F)F)cn1 (2.5 µM),inactive: 0,inactive: 0,inactive: 0,inactive: 0,inactive: 0,inactive: 0,inactive: 0,inactive: 0,inactive: 0,inactive: 0
CC[C@H](C)[C@@H]1NC(=O)[C@@H]2CCCN2C(=O)[C@@H]2CCCN2C(=O)[C@@H]2CCCN2C(=O)[C@H](CC(C)C)NC(=O)CNC(=O)CNC(=O)[C@H](Cc2ccccc2)NC1=O [Heterophyllin B] (10 µM),inactive: 0,inactive: 0,inactive: 0,inactive: 0,inactive: 0,inactive: 0,inactive: 0,inactive: 0,inactive: 0,inactive: 0
CC(C)(C)NS(=O)(=O)c1cncc(-c2cc(F)c3nc(N)nn3c2)c1 (10 µM),inactive: 0,inactive: 0,inactive: 0,inactive: 0,inactive: 0,inactive: 0,inactive: 0,inactive: 0,inactive: 0,inactive: 0
O=S(=O)(c1cccc2c(Cl)cccc12)N1CCCNCC1 (10 µM),inactive: 0,inactive: 0,inactive: 0,inactive: 0,inactive: 0,inactive: 0,inactive: 0,inactive: 0,inactive: 0,inactive: 0
COC(=O)[C@]1(C)CC[C@]2(C(=O)O[C@@H]3O[C@H](CO)[C@@H](O)[C@H](O)[C@H]3O)CC[C@]3(C)C(=CC[C@@H]4[C@@]5(C)C[C@H](O)[C@H](O[C@@H]6OC[C@@H](O[C@@H]7O[C@H](CO)[C@@H](O)[C@H](O)[C@H]7O)[C@H](O)[C@H]6O)[C@@](C)(CO)C5CC[C@]43C)[C@H]2C1 (stereo not given in full) [Esculentoside H] (10 µM),inactive: 0,inactive: 0,inactive: 0,inactive: 0,inactive: 0,inactive: 0,inactive: 0,inactive: 0,inactive: 0,inactive: 0
CNC(=O)c1ccc(-c2cnc3ncc(Cc4ccc5ncccc5c4)n3n2)cc1F [Capmatinib] (10 µM),inactive: 0,inactive: 0,inactive: 0,inactive: 0,inactive: 0,inactive: 0,inactive: 0,inactive: 0,inactive: 0,inactive: 0
COc1c(OCCCN2CCOCC2)ccc2c3n(c(=NC(=O)c4cnc(N)nc4)nc12)CCN3 [Copanlisib (dihydrochloride)] (10 µM),inactive: 0,active: 1,inactive: 0,inactive: 0,inactive: 0,inactive: 0,inactive: 0,inactive: 0,inactive: 0,inactive: 0
NC(=O)c1ccc2nc(-c3ccc(C4(N)CCC4)cc3)c(-c3ccccc3)n2n1 (10 µM),inactive: 0,inactive: 0,inactive: 0,inactive: 0,inactive: 0,inactive: 0,inactive: 0,inactive: 0,inactive: 0,inactive: 0
Nc1n[nH]c(N)c1N=Nc1ccc(O)cc1 (10 µM),inactive: 0,inactive: 0,inactive: 0,inactive: 0,inactive: 0,inactive: 0,inactive: 0,inactive: 0,inactive: 0,inactive: 0
CC(C)[C@H](CO)Nc1nc(Nc2ccc(C(=O)O)c(Cl)c2)c2ncn(C(C)C)c2n1 [Purvalanol B] (10 µM),inactive: 0,inactive: 0,inactive: 0,inactive: 0,inactive: 0,inactive: 0,inactive: 0,inactive: 0,inactive: 0,inactive: 0
Cn1cc(C2=C(c3c4n(c5ccccc35)CCC(CN)C4)C(=O)NC2=O)c2ccccc21 (stereo not given) [Bisindolylmaleimide X (hydrochloride)] (2.5 µM),inactive: 0,inactive: 0,inactive: 0,inactive: 0,inactive: 0,inactive: 0,inactive: 0,inactive: 0,inactive: 0,inactive: 0

# Entries of single compounds from above. Order of values: kinase-Nluc reporter destabilization hit call (CDK7) | kinase-Nluc reporter destabilization hit call (CDK9) | kinase-Nluc reporter destabilization hit call (CHEK2) | kinase-Nluc reporter destabilization hit call (CSF1R) | kinase-Nluc reporter destabilization hit call (CSK) | kinase-Nluc reporter destabilization hit call (CSNK1A1) | kinase-Nluc reporter destabilization hit call (CSNK1D) | kinase-Nluc reporter destabilization hit call (DDR1) | kinase-Nluc reporter destabilization hit call (DYRK1B) | kinase-Nluc reporter destabilization hit call (DYRK2)
# CC[C@H](C)[C@@H]1NC(=O)[C@@H]2CCCN2C(=O)[C@@H]2CCCN2C(=O)[C@@H]2CCCN2C(=O)[C@H](CC(C)C)NC(=O)CNC(=O)CNC(=O)[C@H](Cc2ccccc2)NC1=O [Heterophyllin B] (10 µM) reads inactive: 0 | inactive: 0 | inactive: 0 | inactive: 0 | inactive: 0 | inactive: 0 | inactive: 0 | inactive: 0 | inactive: 0 | inactive: 0
# C[C@@H]1CN(Cc2cn[nH]c2-c2ccc(C#N)cc2)CCN1c1ccc(C(F)(F)F)cn1 (2.5 µM) reads inactive: 0 | inactive: 0 | inactive: 0 | inactive: 0 | inactive: 0 | inactive: 0 | inactive: 0 | inactive: 0 | inactive: 0 | inactive: 0
